Measured values reported in patent US10238710B2 (CAREGEN CO., LTD., priority 2014, dated 2019).

Assay: general procedure: peptide synthesis; CTL resin
Details: whole synthesis; for crude yield: scale of the general procedure 700 mg resin

| Substance | crude mass [g] | crude yield [%] |
| --- | --- | --- |
| H-ACDGRTQALC-OH (cysteine pairing not given here) | 0.76 | 84.4 |
| H-ACRSAIGRPC-OH (cysteine pairing not given here) | 0.79 | 87.8 |
| H-ACFTRTSHAC-OH (cysteine pairing not given here) | 0.77 | 85.5 |
